These are yes or no findings as the source states them, for the method shown. Binding seen in cells or lysates may run through a third protein. These calls come from enrichment with a bait or labelling near it, and not all partners need be listed.
B1: RSF1 (protein, UniProt Q96T23 1-1441)
chain: MATAAAAAAVMAPPGCPGSCPNFAVVCSFLERYGPLLDLPELPFPELERVLQAPPPDVGNGEVPKELVELHLKLMRKIGKSVTADRWEKYLIKICQEFNSTWAWEMEKKGYLEMSVECKLALLKYLCECQFDDNLKFKNIINEEDADTMRLQPIGRDKDGLMYWYQLDQDHNVRMYIEEQDDQDGSSWKCIVRNRNELAETLALLKAQIDPVLLKNSSQQDNSSRESPSLEDEETKKEEETPKQEEQKESEKMKSEEQPMDLENRSTANVLEETTVKKEKEDEKELVKLPVIVKLEKPLPENEEKKIIKEESDSFKENVKPIKVEVKECRADPKDTKSSMEKPVAQEPERIEFGGNIKSSHEITEKSTEETEKLKNDQQAKIPLKKREIKLSDDFDSPVKGPLCKSVTPTKEFLKDEIKQEEETCKRISTITALGHEGKQLVNGEVSDERVAPNFKTEPIETKFYETKEESYSPSKDRNIITEGNGTESLNSVITSMKTGELEKETAPLRKDADSSISVLEIHSQKAQIEEPDPPEMETSLDSSEMAKDLSSKTALSSTESCTMKGEEKSPKTKKDKRPPILECLEKLEKSKKTFLDKDAQRLSPIPEEVPKSTLESEKPGSPEAAETSPPSNIIDHCEKLASEKEVVECQSTSTVGGQSVKKVDLETLKEDSEFTKVEMDNLDNAQTSGIEEPSETKGSMQKSKFKYKLVPEEETTASENTEITSERQKEGIKLTIRISSRKKKPDSPPKVLEPENKQEKTEKEEEKTNVGRTLRRSPRISRPTAKVAEIRDQKADKKRGEGEDEVEEESTALQKTDKKEILKKSEKDTNSKVSKVKPKGKVRWTGSRTRGRWKYSSNDESEGSGSEKSSAASEEEEEKESEEAILADDDEPCKKCGLPNHPELILLCDSCDSGYHTACLRPPLMIIPDGEWFCPPCQHKLLCEKLEEQLQDLDVALKKKERAERRKERLVYVGISIENIIPPQEPDFSEDQEEKKKDSKKSKANLLERRSTRTRKCISYRFDEFDEAIDEAIEDDIKEADGGGVGRGKDISTITGHRGKDISTILDEERKENKRPQRAAAARRKKRRRLNDLDSDSNLDEEESEDEFKISDGSQDEFVVSDENPDESEEDPPSNDDSDTDFCSRRLRRHPSRPMRQSRRLRRKTPKKKYSDDDEEEESEENSRDSESDFSDDFSDDFVETRRRRSRRNQKRQINYKEDSESDGSQKSLRRGKEIRRVHKRRLSSSESEESYLSKNSEDDELAKESKRSVRKRGRSTDEYSEADEEEEEEEGKPSRKRLHRIETDEEESCDNAHGDANQPARDSQPRVLPSEQESTKKPYRIESDEEEDFENVGKVGSPLDYSLVDLPSTNGQSPGKAIENLIGKPTEKSQTPKDNSTASASLASNGTSGGQEAGAPEEEEDELLRVTDLVDYVCNSEQL

Amino acid sequences for entries named in this document (tags omitted).
UniProt Q13263: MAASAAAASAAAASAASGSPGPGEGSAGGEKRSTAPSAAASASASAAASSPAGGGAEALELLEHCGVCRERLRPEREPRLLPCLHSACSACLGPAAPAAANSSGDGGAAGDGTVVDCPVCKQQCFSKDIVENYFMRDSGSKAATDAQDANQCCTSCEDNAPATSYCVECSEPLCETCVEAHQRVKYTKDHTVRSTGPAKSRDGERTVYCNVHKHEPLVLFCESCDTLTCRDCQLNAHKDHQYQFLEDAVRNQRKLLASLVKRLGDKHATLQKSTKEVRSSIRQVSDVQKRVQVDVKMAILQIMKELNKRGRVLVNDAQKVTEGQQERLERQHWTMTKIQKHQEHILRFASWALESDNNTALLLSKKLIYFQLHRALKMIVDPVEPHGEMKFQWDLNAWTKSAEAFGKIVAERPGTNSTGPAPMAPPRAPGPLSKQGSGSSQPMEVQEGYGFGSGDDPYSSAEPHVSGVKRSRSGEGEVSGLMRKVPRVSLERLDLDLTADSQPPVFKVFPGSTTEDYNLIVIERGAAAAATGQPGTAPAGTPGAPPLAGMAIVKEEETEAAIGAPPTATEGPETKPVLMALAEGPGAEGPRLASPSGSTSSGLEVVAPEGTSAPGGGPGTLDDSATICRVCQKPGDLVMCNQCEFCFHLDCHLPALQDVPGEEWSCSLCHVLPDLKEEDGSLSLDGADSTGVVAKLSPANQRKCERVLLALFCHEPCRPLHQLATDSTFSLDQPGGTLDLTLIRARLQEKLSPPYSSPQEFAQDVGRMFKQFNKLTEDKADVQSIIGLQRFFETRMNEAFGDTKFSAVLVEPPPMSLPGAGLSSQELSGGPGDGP
UniProt O60264: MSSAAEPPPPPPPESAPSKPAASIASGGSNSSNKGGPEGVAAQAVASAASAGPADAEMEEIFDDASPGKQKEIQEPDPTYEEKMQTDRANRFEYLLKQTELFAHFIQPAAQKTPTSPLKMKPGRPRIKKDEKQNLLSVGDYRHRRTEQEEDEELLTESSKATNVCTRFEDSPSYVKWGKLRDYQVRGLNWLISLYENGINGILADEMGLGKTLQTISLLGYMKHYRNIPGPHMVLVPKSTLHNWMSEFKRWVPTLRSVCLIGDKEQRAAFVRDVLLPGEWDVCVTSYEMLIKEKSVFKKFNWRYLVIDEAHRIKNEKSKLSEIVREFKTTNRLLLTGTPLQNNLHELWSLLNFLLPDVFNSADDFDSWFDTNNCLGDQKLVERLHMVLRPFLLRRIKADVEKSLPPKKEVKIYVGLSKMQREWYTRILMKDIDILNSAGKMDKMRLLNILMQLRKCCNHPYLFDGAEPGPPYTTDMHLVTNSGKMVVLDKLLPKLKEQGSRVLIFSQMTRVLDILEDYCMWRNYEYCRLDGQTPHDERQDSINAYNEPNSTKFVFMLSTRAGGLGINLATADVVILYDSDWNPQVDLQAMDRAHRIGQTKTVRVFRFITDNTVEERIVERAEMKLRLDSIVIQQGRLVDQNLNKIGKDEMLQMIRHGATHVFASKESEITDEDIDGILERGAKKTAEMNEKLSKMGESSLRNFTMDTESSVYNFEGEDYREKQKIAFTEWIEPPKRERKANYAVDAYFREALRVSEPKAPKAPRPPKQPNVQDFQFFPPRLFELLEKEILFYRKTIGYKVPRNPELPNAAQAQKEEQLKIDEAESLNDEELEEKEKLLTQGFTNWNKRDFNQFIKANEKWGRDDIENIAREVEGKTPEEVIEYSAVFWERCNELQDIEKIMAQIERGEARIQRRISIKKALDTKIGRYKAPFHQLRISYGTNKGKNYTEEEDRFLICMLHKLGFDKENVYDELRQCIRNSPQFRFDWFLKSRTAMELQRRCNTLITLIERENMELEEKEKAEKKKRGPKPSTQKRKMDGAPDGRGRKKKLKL
UniProt Q9NR30: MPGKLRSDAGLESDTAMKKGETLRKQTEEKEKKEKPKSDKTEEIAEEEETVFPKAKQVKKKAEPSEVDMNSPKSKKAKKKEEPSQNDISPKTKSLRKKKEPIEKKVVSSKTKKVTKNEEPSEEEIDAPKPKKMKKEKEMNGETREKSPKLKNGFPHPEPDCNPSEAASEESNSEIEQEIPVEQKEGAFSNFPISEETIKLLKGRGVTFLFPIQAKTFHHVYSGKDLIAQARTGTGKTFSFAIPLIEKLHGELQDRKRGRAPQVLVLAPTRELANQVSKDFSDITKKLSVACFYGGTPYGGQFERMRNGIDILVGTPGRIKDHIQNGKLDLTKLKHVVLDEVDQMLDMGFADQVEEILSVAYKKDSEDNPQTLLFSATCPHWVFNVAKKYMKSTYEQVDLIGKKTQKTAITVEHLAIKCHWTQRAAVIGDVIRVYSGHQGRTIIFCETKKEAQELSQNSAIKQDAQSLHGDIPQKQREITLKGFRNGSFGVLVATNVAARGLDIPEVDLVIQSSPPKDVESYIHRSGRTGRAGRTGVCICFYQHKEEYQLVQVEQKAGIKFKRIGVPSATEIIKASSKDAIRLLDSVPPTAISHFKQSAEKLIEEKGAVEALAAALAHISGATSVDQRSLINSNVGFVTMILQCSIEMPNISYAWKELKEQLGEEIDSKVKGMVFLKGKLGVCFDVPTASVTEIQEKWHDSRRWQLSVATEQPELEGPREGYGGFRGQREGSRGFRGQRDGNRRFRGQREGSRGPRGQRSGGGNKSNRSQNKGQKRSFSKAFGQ
UniProt Q9Y265: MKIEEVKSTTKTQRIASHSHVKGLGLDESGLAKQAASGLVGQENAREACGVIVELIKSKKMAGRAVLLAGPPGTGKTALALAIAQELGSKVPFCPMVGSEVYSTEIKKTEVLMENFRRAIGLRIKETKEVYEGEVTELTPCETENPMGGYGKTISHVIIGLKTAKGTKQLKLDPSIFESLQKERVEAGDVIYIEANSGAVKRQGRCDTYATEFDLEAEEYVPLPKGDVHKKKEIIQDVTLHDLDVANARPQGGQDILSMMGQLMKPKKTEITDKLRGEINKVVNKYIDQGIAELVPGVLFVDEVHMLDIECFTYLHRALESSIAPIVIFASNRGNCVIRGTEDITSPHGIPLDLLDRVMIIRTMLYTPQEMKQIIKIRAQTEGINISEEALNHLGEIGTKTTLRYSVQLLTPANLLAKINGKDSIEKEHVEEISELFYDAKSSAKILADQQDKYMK
UniProt Q16531: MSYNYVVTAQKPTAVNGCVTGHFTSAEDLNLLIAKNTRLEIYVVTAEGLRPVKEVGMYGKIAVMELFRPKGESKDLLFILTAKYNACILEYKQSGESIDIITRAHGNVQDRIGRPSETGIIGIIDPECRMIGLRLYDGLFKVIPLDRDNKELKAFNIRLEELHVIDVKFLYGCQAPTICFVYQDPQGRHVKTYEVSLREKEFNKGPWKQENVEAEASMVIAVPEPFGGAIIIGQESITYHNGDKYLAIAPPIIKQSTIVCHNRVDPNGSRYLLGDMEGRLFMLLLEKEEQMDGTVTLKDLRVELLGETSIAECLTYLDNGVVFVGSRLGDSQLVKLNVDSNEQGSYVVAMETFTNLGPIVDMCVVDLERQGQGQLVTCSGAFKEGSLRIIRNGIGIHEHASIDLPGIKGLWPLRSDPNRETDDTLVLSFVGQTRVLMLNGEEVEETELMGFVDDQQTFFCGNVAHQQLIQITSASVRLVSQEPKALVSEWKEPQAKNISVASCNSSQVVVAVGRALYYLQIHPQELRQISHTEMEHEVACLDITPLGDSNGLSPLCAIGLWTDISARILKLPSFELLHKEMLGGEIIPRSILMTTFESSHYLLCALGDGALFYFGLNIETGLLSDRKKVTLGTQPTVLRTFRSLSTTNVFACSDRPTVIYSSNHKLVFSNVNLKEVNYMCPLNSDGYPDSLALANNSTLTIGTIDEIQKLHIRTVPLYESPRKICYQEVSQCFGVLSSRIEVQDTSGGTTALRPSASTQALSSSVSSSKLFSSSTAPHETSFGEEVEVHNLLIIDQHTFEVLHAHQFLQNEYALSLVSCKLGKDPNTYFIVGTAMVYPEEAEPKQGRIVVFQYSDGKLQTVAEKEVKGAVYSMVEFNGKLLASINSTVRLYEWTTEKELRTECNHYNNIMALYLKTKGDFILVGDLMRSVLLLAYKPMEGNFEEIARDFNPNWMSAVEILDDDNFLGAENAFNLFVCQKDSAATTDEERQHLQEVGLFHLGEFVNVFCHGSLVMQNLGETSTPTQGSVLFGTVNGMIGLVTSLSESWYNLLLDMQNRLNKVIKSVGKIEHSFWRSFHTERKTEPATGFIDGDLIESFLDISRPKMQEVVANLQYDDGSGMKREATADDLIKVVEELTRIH

The molecules below were run against FLAG-HA-tagged KAP1 (human) (UniProt Q13263) (assay: affinity purification with mass spectrometry; two-step affinity purification (anti-FLAG agarose, FLAG peptide elution; then anti-HA agarose, HA peptide elution, native conditions) of FLAG-HA-KAP1 from Dignam nuclear extracts and benzonase-treated chromatin-soluble extracts of K562 cells; mock from K562 not expressing the construct; tandem MS).

Row | Molecule | binding
1 | SMARCA5 (from UniProt O60264 1-1052) | binds
2 | DDX21 (from UniProt Q9NR30 1-783) | binds
3 | RuvB-like protein 1 (from UniProt Q9Y265 1-456) | binds
4 | DNA-damage binding protein 1 (from UniProt Q16531 1-1140) | binds
5 | B1 | binds
